PMC7819943, “Rice protein-binding microarrays: a tool to detect cis-acting elements near promoter regions in rice”
The other results are listed elsewhere or left out.

The chains behind the UniProt entries cited, without tags or fusion partners.
UniProt Q0JBA9, entry or part of it: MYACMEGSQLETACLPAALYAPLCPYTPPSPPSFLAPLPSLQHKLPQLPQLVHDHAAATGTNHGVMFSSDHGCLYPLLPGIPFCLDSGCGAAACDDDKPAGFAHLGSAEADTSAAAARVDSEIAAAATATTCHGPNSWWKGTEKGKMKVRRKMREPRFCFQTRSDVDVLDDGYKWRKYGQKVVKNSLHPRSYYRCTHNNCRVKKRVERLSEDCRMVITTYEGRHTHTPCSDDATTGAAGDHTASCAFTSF

molecular target: OsWRKY34 (Oryza sativa, UniProt Q0JBA9 1-250); assay: protein-binding microarray (RPBM); PBS, 2% BSA, 51.3 ng/ul salmon testes DNA, 50 uM zinc acetate, 200 nM TF, 25 C, 1 h; high values mean tight binding; details: protein: recombinant; tags: N-terminal polyhistidine and DsRed monomer fusion (pET32a); label: CyDye5-dUTP incorporated in the synthesized complementary strand; 3' TTTTT single-stranded linker to array surface; dsDNA, one strand shown
In short: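 Transcription factors were made in E. coli BL21-CodonPlus as N-terminal fusions to a polyhistidine tag and DsRed, then purified on Ni–NTA. After primer extension with Cy5-dUTP and blocking with 2% BSA, a custom Agilent array was exposed for 1 h at 25 °C to 200 nM protein in PBS, 2% BSA, salmon testes DNA and 50 µM zinc acetate. Washed arrays were scanned on an Axon 4000B, and the binding signal is per-feature fluorescence intensity in arbitrary units.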

| Sequence | binding signal |
| --- | --- |
| GGCTGCAGTTTCTGTTTTTTTTTTCTCTGCTGAATCTTGTCGGAGTCACCTAGTGCAG | 8830 fluorescence intensity (a.u.) |
| CAACTGTGTACGTCATTTTGTTTGCTCTTTTATACATGTACGGAGTCACCTAGTGCAG | 11800 fluorescence intensity (a.u.) |
| TGTTTCGTTGTACTTTCTGCTCCCAGTTGAGGATTTGCCACGGAGTCACCTAGTGCAG | 9380 fluorescence intensity (a.u.) |
| CTTCCCTCCCGCGACTGACTTTTTTTCTTTTTTATTTTTCCGGAGTCACCTAGTGCAG | 11600 fluorescence intensity (a.u.) |
| CACGGCACTAGACACCACCATCCTCTTACCTTCCCGGTTTCGGAGTCACCTAGTGCAG | 9130 fluorescence intensity (a.u.) |
| TAACTCTTGTAGCTGTTTTGTTTTTGCATAGGTTTATATTCGGAGTCACCTAGTGCAG | 10800 fluorescence intensity (a.u.) |
| TTATTCGTTAGTATGATTGCTATATATTGTTTTTTTTTACCGGAGTCACCTAGTGCAG | 8050 fluorescence intensity (a.u.) |
| ATACTCTCCCACCCACGTTCATGTTCTCCATGGAGCTGCACGGAGTCACCTAGTGCAG | 8180 fluorescence intensity (a.u.) |
| CTTTCTATCAGCATTGGCAGCTTGCTCGTTGTAACTGTTTCGGAGTCACCTAGTGCAG | 8630 fluorescence intensity (a.u.) |
| CTTATTACTGTTCGAGCTTATGTCACATCTATTCCAAGGACGGAGTCACCTAGTGCAG | 9690 fluorescence intensity (a.u.) |
| TGATTAGATCAGCCATTTTAATTTTTTTGCCTCTTAAGTGCGGAGTCACCTAGTGCAG | 8240 fluorescence intensity (a.u.) |
| ACGCTCTTTGTGTTGCTGCCACCGCCGCCGACCGCCGCAGCGGAGTCACCTAGTGCAG | 9590 fluorescence intensity (a.u.) |
| GGGATAATTGTTCAGTCTTAGGCGAGCACAGATTTATCATCGGAGTCACCTAGTGCAG | 9690 fluorescence intensity (a.u.) |
| TCGTTATACCTGGTTTTTTTGGTTGAGGGATGTTATTCGACGGAGTCACCTAGTGCAG | 12500 fluorescence intensity (a.u.) |
| TTGCCATCTAACATTTGTTATCTTGAGTTACCACAAATTTCGGAGTCACCTAGTGCAG | 9210 fluorescence intensity (a.u.) |
| CTCGCCTCTGGATCTCGCCCTCTCGGCGTCGCCGGCGCCTCGGAGTCACCTAGTGCAG | 10500 fluorescence intensity (a.u.) |
| TGATGCTTTGGCCGGGGTGGGTGTGTCTCCCGGTGTGTAGCGGAGTCACCTAGTGCAG | 12400 fluorescence intensity (a.u.) |
| TTACTACTACCACTCGTTTTCTTGGCTTGGTTTGGTTTGGCGGAGTCACCTAGTGCAG | 13000 fluorescence intensity (a.u.) |
| CTTTTTGTTCTTGTCCTTCTCTCTTTGTCTCTTCAATAATCGGAGTCACCTAGTGCAG | 8520 fluorescence intensity (a.u.) |
| TTTTACCAACTTTCTTAATACTCGTGTCCACCTAAAAAATCGGAGTCACCTAGTGCAG | 8440 fluorescence intensity (a.u.) |
| GAAAAAAATGTATTTGACGGGTGGGTCTCACTTATAGAGACGGAGTCACCTAGTGCAG | 8530 fluorescence intensity (a.u.) |
| ACCGGTGCATATTGTTGATCAGTATTGTGTGTTGAACTGACGGAGTCACCTAGTGCAG | 10400 fluorescence intensity (a.u.) |
| ACATACAAACTGTGCAATTGGTTTTTTCTTCGTTCATATTCGGAGTCACCTAGTGCAG | 9260 fluorescence intensity (a.u.) |
| GTGTCGGCGTGGATAAATGTTTCTTTCGATCCGGTTCAAGCGGAGTCACCTAGTGCAG | 8600 fluorescence intensity (a.u.) |
| CCCATGTAGTTTTATGCCTCGATGTACTTTGCCAAGCCCACGGAGTCACCTAGTGCAG | 8500 fluorescence intensity (a.u.) |
| TTCGCTCTCTCTTGCTCTCCACCACCGCGGCTTTCTTTAACGGAGTCACCTAGTGCAG | 12500 fluorescence intensity (a.u.) |
| CCACGCACGTACCACCGGTTCATCACCCGACCAGTCAAATCGGAGTCACCTAGTGCAG | 10100 fluorescence intensity (a.u.) |

An excerpt from the list above:

| Sequence | binding signal |
| --- | --- |
| CTCGCCTCTGGATCTCGCCCTCTCGGCGTCGCCGGCGCCTCGGAGTCACCTAGTGCAG | 10500 fluorescence intensity (a.u.) |
| TGATGCTTTGGCCGGGGTGGGTGTGTCTCCCGGTGTGTAGCGGAGTCACCTAGTGCAG | 12400 fluorescence intensity (a.u.) |
| TTACTACTACCACTCGTTTTCTTGGCTTGGTTTGGTTTGGCGGAGTCACCTAGTGCAG | 13000 fluorescence intensity (a.u.) |

Carrying on.

| Sequence | binding signal |
| --- | --- |
| CTGTATTTGCCACTGCTGTTTGTAGTCACAAGAAACACTACGGAGTCACCTAGTGCAG | 8250 fluorescence intensity (a.u.) |
| GTCAATGTGTTTGTTATTCTAACCAGCTCGTCAATTAATTCGGAGTCACCTAGTGCAG | 10500 fluorescence intensity (a.u.) |
| ATCCTTCTTCGTTTTCTGATTTTCCATCTCATCAGTAATACGGAGTCACCTAGTGCAG | 10300 fluorescence intensity (a.u.) |
| GGTATGCTACATTTGCTGTTTATTTTTTAGCAAAGCTAAACGGAGTCACCTAGTGCAG | 8860 fluorescence intensity (a.u.) |
| CCCCGTCTCTCCCTGTGTCTCGTCTTCGTCTCGGCTCGTCCGGAGTCACCTAGTGCAG | 8820 fluorescence intensity (a.u.) |
| CACATGTTATTACCACCTCATTTTGCGTAAAACACTTAATCGGAGTCACCTAGTGCAG | 8460 fluorescence intensity (a.u.) |
| TGAACAGACAGCAATTACCTTTCGTGTTCTCTTCTAGGAACGGAGTCACCTAGTGCAG | 9050 fluorescence intensity (a.u.) |
| CTCTATCTTTTTCTTACTCTCTCGTGTTCCTCTTCACTGCCGGAGTCACCTAGTGCAG | 11100 fluorescence intensity (a.u.) |
| TATGGCTGTGTTCTTCCCTTCCTTTCCCAACTAACTTTCCCGGAGTCACCTAGTGCAG | 8780 fluorescence intensity (a.u.) |
| TTAGTCTCTCTCTTAACCTCCTATGGATGTCTTGTATTTACGGAGTCACCTAGTGCAG | 8550 fluorescence intensity (a.u.) |
| GTTCTATTGTACTGGTCAGTTCAGTGGACTCGGTTCTGTTCGGAGTCACCTAGTGCAG | 9260 fluorescence intensity (a.u.) |
| GTTGTTTGGCTGTGTTTCTTGTGTTTTTAATGTTTCACTTCGGAGTCACCTAGTGCAG | 13000 fluorescence intensity (a.u.) |
| TCTCTCCTACGTATATAAGCGGCTTCCTTCCCAACTAATTCGGAGTCACCTAGTGCAG | 9210 fluorescence intensity (a.u.) |
| ACAGCAGCCCAGGCACAGCCCAACTCTCGGGCCCGTCATCCGGAGTCACCTAGTGCAG | 8360 fluorescence intensity (a.u.) |
| TGACGTTTGACCAAAGTTTTCTTCAATTTTTCAGAAATGGCGGAGTCACCTAGTGCAG | 9900 fluorescence intensity (a.u.) |
| TTGTAACTATGGTGTAGTCTTATTATCGCTCTTTTCTTTTCGGAGTCACCTAGTGCAG | 9800 fluorescence intensity (a.u.) |
| AGGAGACCGATGGGGACATGGGGCGTGGCGGGAGAGGATTCGGAGTCACCTAGTGCAG | 8620 fluorescence intensity (a.u.) |
| GGGCCCCGCTCTCAGTGTTTGTGCCTTGCGAGTTGGGAAGCGGAGTCACCTAGTGCAG | 14900 fluorescence intensity (a.u.) |
| GGGTCGCTGTCTTGCTGAAATATGGGCTAACAAGCTGTGGCGGAGTCACCTAGTGCAG | 8600 fluorescence intensity (a.u.) |
| CAATTGACATACACGACATATTTTTCCCCTTATTTTTTTTCGGAGTCACCTAGTGCAG | 10400 fluorescence intensity (a.u.) |
| ATTCCAGCCCATGTTTGGCAAGTGCTATTTTTATGGTAAACGGAGTCACCTAGTGCAG | 11700 fluorescence intensity (a.u.) |
| TTCTCCGCGCTGCAGTCCTCGCCACAACTCGTCGGCCGAACGGAGTCACCTAGTGCAG | 11600 fluorescence intensity (a.u.) |
| TAGTAGTGTACTGTTTATATCTAATTTTGTCTTTTTTTTTCGGAGTCACCTAGTGCAG | 12000 fluorescence intensity (a.u.) |
| CCAGCCCCGCGCCGGCCGCCGTCCGTCCGCCCGCGCGCGGCGGAGTCACCTAGTGCAG | 8380 fluorescence intensity (a.u.) |
| TGGAGTAAACTTTTTTGACTCTGTGCCGTTGCCTGTTTTTCGGAGTCACCTAGTGCAG | 12600 fluorescence intensity (a.u.) |
| GGGGAAGGAGAAGAGGAAGGAGAGGGGAGGAGGAGGAGGGCGGAGTCACCTAGTGCAG | 8870 fluorescence intensity (a.u.) |
| CCGCTTTCCGATTCAGTTTTTTTTGTTCTTACCTTGCACGCGGAGTCACCTAGTGCAG | 12500 fluorescence intensity (a.u.) |
